Square brackets hold non-standard residues; d marks the D form. Peptide text beside a SMILES is read from it.
Test: CD spectrum measurement (conformation of peptides)
Format: physicochemical
Conditions: 20 mM Tes Buffer with 150 mM NaCl, 25° C., FIG. 1A
With CC(C)C[C@H](NC(=O)[C@H](CC(C)C)NC(=O)[C@H](CC(C)C)NC(=O)[C@H](CCCCN)NC(=O)[C@@H](CC(C)C)NC(=O)[C@H](CC(C)C)NC(=O)[C@H](CCCCN)NC(=O)[C@H](CC(C)C)NC(=O)[C@H](Cc1c[nH]c2ccccc12)NC(=O)[C@H](CC(C)C)NC(=O)[C@@H](CCCCN)NC(=O)[C@@H](CC(C)C)NC(=O)[C@H](CC(C)C)NC(=O)[C@H](CC(C)C)NC(=O)[C@H](CCCCN)NC(=O)[C@H](CC(C)C)NC(=O)[C@H](CC(C)C)NC(=O)[C@@H](N)CCCCN)C(=O)O [Hel 13-5D3, NH2-Lys Leu Leu Lys Leu Leu D-Leu D-Lys Leu Trp Leu Lys D-Leu Leu Lys Leu Leu Leu-COOH] (H-KLLKLL[dL][dK]LWLKL[dL]KLLL-OH) the “structure from CD spectrum” value was “reduced their α-helix structures and assumed a random-like structure”.
For CC(C)C[C@H](NC(=O)[C@H](CC(C)C)NC(=O)[C@@H](CC(C)C)NC(=O)[C@H](CCCCN)NC(=O)[C@@H](CC(C)C)NC(=O)[C@H](CC(C)C)NC(=O)[C@H](CCCCN)NC(=O)[C@@H](CC(C)C)NC(=O)[C@H](Cc1c[nH]c2ccccc12)NC(=O)[C@H](CC(C)C)NC(=O)[C@@H](CCCCN)NC(=O)[C@@H](CC(C)C)NC(=O)[C@H](CC(C)C)NC(=O)[C@H](CC(C)C)NC(=O)[C@H](CCCCN)NC(=O)[C@H](CC(C)C)NC(=O)[C@H](CC(C)C)NC(=O)[C@@H](N)CCCCN)C(=O)O [Hel 13-5D5, NH2-Lys Leu Leu Lys Leu Leu D-Leu D-Lys Leu Trp D-Leu Lys Leu D-Leu Lys D-Leu Leu Leu-COOH] (H-KLLKLL[dL][dK]LW[dL]KL[dL]K[dL]LL-OH), the “structure from CD spectrum” value was “reduced their α-helix structures and assumed a random-like structure”.
For “H-KLLKLLLKLWLKLLKLLL-OH [Hel 13-5, NH2-Lys Leu Leu Lys Leu Leu Leu Lys Leu Trp Leu Lys Leu Leu Lys Leu Leu Leu-COOH]”, the “structure from CD spectrum” value was “assumed an α-helix structure”.

From patent US20110195892A1, “Artifical Pulmonary Surfactant Compositions” (priority 2005, published 2011)
